Experimental data from paper PMC8789055, “Structural and biochemical characterization of human Schlafen 5”.
No constants are given. Whether binding was seen depends on the method and setting. One block for each binder: values may come before it.

What was measured:
[1] = target: full-length human Schlafen 5 (SLFN5) (human) (UniProt Q08AF3); experiment: SEC; analytical size exclusion chromatography of purified full-length SLFN5; single peak; both purified
[2] = target: human SLFN5 N-terminal core domain (SLFN5 1-336) (human) (UniProt Q08AF3); experiment: SEC-coupled right-angle light scattering (RALS); Superdex 200 10/300 Increase column coupled to a right-angle laser static light scattering device and refractive index detector; calibrated with BSA; both purified

binding [1]: no binding
B1: full-length human Schlafen 5 (SLFN5) (protein, UniProt Q08AF3 1-891)
chain: MSLRIDVDTNFPECVVDAGKVTLGTQQRQEMDPRLREKQNEIILRAVCALLNSGGGIIKAEIENKGYNYERHGVGLDVPPIFRSHLDKMQKENHFLIFVKSWNTEAGVPLATLCSNLYHRERTSTDVMDSQEALAFLKCRTQTPTNINVSNSLGPQAAQGSVQYEGNINVSAAALFDRKRLQYLEKLNLPESTHVEFVMFSTDVSHCVKDRLPKCVSAFANTEGGYVFFGVHDETCQVIGCEKEKIDLTSLRASIDGCIKKLPVHHFCTQRPEIKYVLNFLEVHDKGALRGYVCAIKVEKFCCAVFAKVPSSWQVKDNRVRQLPTREWTAWMMEADPDLSRCPEMVLQLSLSSATPRSKPVCIHKNSECLKEQQKRYFPVFSDRVVYTPESLYKELFSQHKGLRDLINTEMRPFSQGILIFSQSWAVDLGLQEKQGVICDALLISQNNTPILYTIFSKWDAGCKGYSMIVAYSLKQKLVNKGGYTGRLCITPLVCVLNSDRKAQSVYSSYLQIYPESYNFMTPQHMEALLQSLVIVLLGFKSFLSEELGSEVLNLLTNKQYELLSKNLRKTRELFVHGLPGSGKTILALRIMEKIRNVFHCEPANILYICENQPLKKLVSFSKKNICQPVTRKTFMKNNFEHIQHIIIDDAQNFRTEDGDWYGKAKFITQTARDGPGVLWIFLDYFQTYHLSCSGLPPPSDQYPREEINRVVRNAGPIANYLQQVMQEARQNPPPNLPPGSLVMLYEPKWAQGVPGNLEIIEDLNLEEILIYVANKCRFLLRNGYSPKDIAVLFTKASEVEKYKDRLLTAMRKRKLSQLHEESDLLLQIGDASDVLTDHIVLDSVCRFSGLERNIVFGINPGVAPPAGAYNLLLCLASRAKRHLYILKASV

binding [2]: no binding
B2: human SLFN5 N-terminal core domain (SLFN5 1-336) (domain or fragment, UniProt Q08AF3 1-336)
chain: MSLRIDVDTNFPECVVDAGKVTLGTQQRQEMDPRLREKQNEIILRAVCALLNSGGGIIKAEIENKGYNYERHGVGLDVPPIFRSHLDKMQKENHFLIFVKSWNTEAGVPLATLCSNLYHRERTSTDVMDSQEALAFLKCRTQTPTNINVSNSLGPQAAQGSVQYEGNINVSAAALFDRKRLQYLEKLNLPESTHVEFVMFSTDVSHCVKDRLPKCVSAFANTEGGYVFFGVHDETCQVIGCEKEKIDLTSLRASIDGCIKKLPVHHFCTQRPEIKYVLNFLEVHDKGALRGYVCAIKVEKFCCAVFAKVPSSWQVKDNRVRQLPTREWTAWMMEAD
